# Assay results published in PubChem BioAssay AID540276 (National Center for Advancing Translational Sciences (NCATS), 2011).
# Among all 300,000 compounds or so, about 5,400 (1.8%) were called active. Inconclusive means that the source gave no clear call. Such entries were picked first, then a sample of the others. The call rests on the fitted dose curve; tested in HEK293 cells. Potencies of inconclusive entries are doubtful fits and often do not repeat.
# Assay: qHTS for inhibitors of binding or entry into cells for Marburg Virus
# Conditions: Marburg virus pseudotyped entry inhibition, cell reporter; activity change, negative = inhibition: at 37.8 µM (top of the series) unless noted
# On the % scale 0 is the no-effect control and ±100 the full control effect; potency means the concentration at half of the fitted maximal effect.
SMILES,"activity change, negative = inhibition",Potency
CCS(=O)(=O)N1CCN(c2ccc(Cl)cc2[N+](=O)[O-])CC1,inactive: -1.25%,
CS(=O)(=O)N(CC(=O)Nc1c(F)cccc1F)c1ccc(C23CC4CC(CC(C4)C2)C3)cc1,,"inconclusive: 13 µM [inhibitor, partial curve, poor fit]"
COc1ccc(OC)c(C(O)C(C)N)c1 (stereo not given),,"inconclusive: 31.6 µM [activator, single point]"
O=C(COC(=O)CCCc1nc2ccccc2s1)NC(=O)NCc1ccco1,,"inconclusive: 7.08 µM [activator, partial curve, poor fit]"
Cc1cc(Cl)ccc1OCCCC(=O)N1CCOCC1,,"inconclusive: 35.5 µM [activator, single point]"
COc1ccc(/C=N/OCC(=O)Nc2ccc3c(c2)OCO3)c(OC)c1,inactive: -6.31% [at 46.1 µM],
N=c1n(CCN2CCCC2)c2ccccc2n1CC(O)c1ccco1 (stereo not given),,"inconclusive: 20.6 µM [inhibitor, single point]"
COc1ccc(NC(=O)c2cn(-c3ccccc3)nc2-c2ccncc2)cc1,,"inconclusive: 10 µM [inhibitor, partial curve, poor fit]"
Cc1cc(OC(C)C(=O)NNC(=O)Nc2ccc(F)cc2F)cc(C)c1Cl (stereo not given),,"inconclusive: 35.5 µM [inhibitor, single point]"
CCc1cc2c(=O)[nH]c(N3CCCC3)nc2s1,inactive: 20.9%,
COc1ccc(F)c(CN2CCC(CO)(Cc3cccc(C(F)(F)F)c3)CC2)c1,,"inconclusive: 25.1 µM [inhibitor, single point]"
CCc1nc(Nc2ccc(OC)cc2OC)c2oc3ccccc3c2n1,,"inconclusive: 8.91 µM [inhibitor, partial curve, poor fit]"
COc1cc(/C=C(\C#N)c2nc3ccccc3s2)cc([N+](=O)[O-])c1O,,"inconclusive: 8.91 µM [activator, single point]"
Cc1ccc(NC(=S)NC2CCCCC2)cc1S(=O)(=O)N(C)C,,"inconclusive: 35.5 µM [inhibitor, single point]"
CC(=O)N1CCN(c2ccc(NC(=O)c3ccc(C(C)(C)C)cc3)cc2)CC1,,"inconclusive: 29.1 µM [inhibitor, single point]"
Cc1ccc(C(=O)Nc2cccc([N+](=O)[O-])c2)cc1S(=O)(=O)Nc1ccc(NC(=O)c2ccccc2)cc1,,"inconclusive: 20 µM [inhibitor, partial curve, poor fit]"
Cc1ccc(COC(=O)c2ccc3ccccc3n2)cc1,,"inconclusive: 11.2 µM [activator, partial curve]"
CCOc1ccc(NC(=O)c2ccccc2CO)cc1,inactive: 22.9% [at 46.1 µM],
COc1ccccc1C(=O)NCC(=O)OCC(=O)c1ccc2c(c1)-c1ccccc1C2,,"inconclusive: 1.41 µM [inhibitor, partial curve, poor fit]"
C=CCOC(=O)COc1ccc2c(C)c(C)c(=O)oc2c1C,,"inconclusive: 0.184 µM [inhibitor, full curve, poor fit]"
Nc1ccc2oc(-c3ccccc3Br)nc2c1,,"inconclusive: 35.5 µM [activator, partial curve, poor fit]"
O=C(CCCOc1ccccc1)N1CCCCC1,,"inconclusive: 7.08 µM [inhibitor, partial curve, poor fit]"

SMILES,"activity change, negative = inhibition",Potency
Cc1ccc(C2=NN(C(=O)CN3C(=O)c4ccccc4S3(=O)=O)C(c3ccco3)C2)cc1 (stereo not given),,"inconclusive: 35.5 µM [inhibitor, single point]"
COC(=O)c1ccc(CN2C(=O)NC(CC(C)C)C2=O)cc1 (stereo not given),,"inconclusive: 6.31 µM [inhibitor, single point]"
CC12CCC(=O)N1C(C(=O)NNC(=O)c1ccc(Cl)cc1)CS2 (stereo not given),,"inconclusive: 3.98 µM [inhibitor, partial curve, poor fit]"
CCOC(=O)c1cc(-c2ccc(N3CCOCC3)cc2)nn1-c1ccccc1,,"inconclusive: 6.31 µM [activator, single point]"
CCOc1ccc(OCCSc2nc3ccccc3[nH]2)cc1,inactive: -21.4%,
CC(C)(C)NC(=O)c1oc2ccccc2c1COc1ccccc1,,"inconclusive: 35.5 µM [inhibitor, single point]"
COc1ccc(C2(c3ccc(OC)cc3)NC(=O)N(CC(=O)Nc3ccc(OC(F)F)cc3)C2=O)cc1,,"inconclusive: 14.1 µM [inhibitor, single point]"
CC1CCCCN1CC(=O)Nc1cc(S(=O)(=O)N2CCOCC2)ccc1N1CCCC1 (stereo not given),inactive: -6.97% [at 46.1 µM],
O=C(CSc1nnc(-c2cccs2)n1CC1CCCO1)c1cc2ccccc2o1 (stereo not given),inactive: 18.1%,
COc1cccc(OC)c1C(=O)Nc1ccccc1N1CCCCC1,,"inconclusive: 0.708 µM [inhibitor, full curve, poor fit]"
Cc1ccc(NC(=O)c2cc(N3C(=O)C=CC3=O)ccc2N2CCOCC2)cc1Cl,inactive: -10.5%,
COc1ccc2c(c1)-c1c(sn(-c3ccc(OC)c(OC)c3)c1=S)C(C)(C)N2,,"inconclusive: 22.4 µM [inhibitor, single point]"
O=C(Cn1cncn1)NCc1cc(F)ccc1F,inactive: 3.99% [at 46.1 µM],
CSCCC(C(=O)NC1=NCCS1)N1C(=O)c2ccccc2C1=O (stereo not given),inconclusive: 2.27% [activator] [at 46.1 µM],
CCN(CC)CCOC(=O)c1cc2cc(COC)ccc2o1,,"inconclusive: 35.5 µM [activator, single point]"
N#CC1=C(N)N(c2ccc(Br)cc2)C2=C(C(=O)CCC2)C1c1cccnc1 (stereo not given),,"inconclusive: 0.0041 µM [activator, full curve, poor fit]"
Cc1ccc(NC(=O)CSCC(=O)Nc2cc(Cl)ccc2N2CCN(C)CC2)cc1,,"inconclusive: 35.5 µM [inhibitor, single point]"
COc1ccc(S(=O)(=O)N2CC(=O)Nc3ccccc32)cc1F,inactive: -20.4% [at 46.1 µM],
CCOC(=O)c1cc(NC(=O)CNCC(c2ccccc2)N(C)C)cc(C(=O)OCC)c1 (stereo not given),,"inconclusive: 22.4 µM [inhibitor, single point]"
COc1ccc(-c2ccc(SCC(=O)NC3CCCCC3)nn2)cc1OC,inactive: -5.79% [at 46.1 µM],
O=C(Nc1noc2ccccc12)c1cccc(Cl)c1Cl,,"inconclusive: 2.51 µM [activator, partial curve, poor fit]"
COc1ccc(CNCCC(c2ccc(C)cc2)c2ccco2)cc1 (stereo not given),,active: 28.2 µM

SMILES,"activity change, negative = inhibition",Potency
COc1ccc(-n2nc(C(=O)NCC(=O)N3CCN(c4ccccn4)CC3)c3ccccc3c2=O)cc1OC,,"inconclusive: 12.6 µM [inhibitor, partial curve]"
COc1cc(/C=N/NC(=O)CNC(=O)c2ccc3c(c2)OCCO3)ccc1O,inactive: 28.1%,
CCOc1ccc(S(=O)(=O)NCCC(=O)NCc2cccnc2)cc1,,"inconclusive: 3.55 µM [inhibitor, single point]"
CCN(/N=C/c1cccs1)c1cc(=O)n(C)c(=O)[nH]1,,"inconclusive: 31.6 µM [activator, single point]"
CC(C)C1CC(CCNCc2ccc(N(C)C)cc2)(c2ccccc2)CCO1 (stereo not given),,"inconclusive: 10 µM [inhibitor, partial curve, poor fit]"
COc1cc(-c2nnc3sc(C4CCCCC4)nn23)cc(OC)c1OC,,"inconclusive: 7.94 µM [inhibitor, partial curve, poor fit]"
Cc1noc(C)c1S(=O)(=O)NC1CCCc2ccccc21 (stereo not given),,"inconclusive: 35.5 µM [inhibitor, single point]"
O=C(c1ccco1)n1nc(-c2ccco2)nc1SCc1ccccc1,,"inconclusive: 1.83 µM [activator, full curve]"
COc1ccc(C)cc1NC(=O)Nc1ccc(C(=O)N2CCCC2)cc1,,"inconclusive: 5.62 µM [activator, single point]"
COC/C=C/C1=CC2=CC(=O)C(C)(OC(=O)c3cnc4ccccc4n3)C(=O)C2=CN1C1CC1 (stereo not given),,"inconclusive: 1.06 µM [activator, full curve, poor fit]"
Cc1cc(OCC(=O)N(Cc2ccc(N(C)C)cc2)Cc2ccco2)cc(C)c1Cl,inactive: -11.3% [at 46.1 µM],
CCn1nc(C(=O)OCC(=O)c2cc(C)n(Cc3cccs3)c2C)c2ccccc2c1=O,,"inconclusive: 16.4 µM [activator, partial curve, poor fit]"
O=C(Nc1ccccc1-c1nnn(CC(=O)N2CCCc3ccccc32)n1)c1ccco1,,"inconclusive: 1.83 µM [inhibitor, full curve, poor fit]"
Cc1cc(C)c(NC(=O)Nc2ccccc2)c(Cl)c1,,"inconclusive: 11.2 µM [activator, single point]"
COc1ccc(C(O)c2nccn2Cc2ccccc2)cc1OC (stereo not given),,"inconclusive: 29.1 µM [inhibitor, single point]"
COC(=O)CSc1nc2ccc(NC(=O)c3ccccc3C(=O)N3CCOCC3)cc2s1,inactive: -2.34%,
Cc1cc(C)cc(N(C(=O)Cn2nnc(-c3ccccc3)n2)C(C(=O)NC2CCCCC2)c2ccccn2)c1 (stereo not given),,"inconclusive: 6.31 µM [activator, single point]"
CCOC(=O)c1c(C)c(C(=O)Nc2ccc(F)cc2)c(C)n1C,,"inconclusive: 2.51 µM [inhibitor, full curve, poor fit]"
CC(C)C1(C)C(=O)N=C2c3ccccc3C(=O)N21 (stereo not given),inactive: 16.7% [at 46.1 µM],
CCN1CCCC1CNS(=O)(=O)c1ccc(C(=O)Nc2ccccc2)cc1 (stereo not given),,"inconclusive: 11.2 µM [inhibitor, partial curve, poor fit]"
COc1ccccc1NC(=O)Cn1cnc2ccc(S(=O)(=O)N3CCC(C)CC3)cc2c1=O,,"inconclusive: 3.55 µM [inhibitor, partial curve, poor fit]"

# Among those listed so far, these contain a cyano group:
SMILES,"activity change, negative = inhibition",Potency
COc1cc(/C=C(\C#N)c2nc3ccccc3s2)cc([N+](=O)[O-])c1O,,"inconclusive: 8.91 µM [activator, single point]"
N#CC1=C(N)N(c2ccc(Br)cc2)C2=C(C(=O)CCC2)C1c1cccnc1 (stereo not given),,"inconclusive: 0.0041 µM [activator, full curve, poor fit]"
